Source: paper doi:10.1101/2021.06.14.448427 (bioRxiv, 2021)
These are yes or no findings as the source states them, for the method shown.

Columns and labels:
[1] = target: Cleaved CDCP1 ectodomain complex, Cut 3 (c-CDCP1 (Cut 3)) (human) (UniProt Q9H5V8); assay: SEC-MALS
[2] = target: Uncleaved CDCP1 ectodomain (fl-CDCP1) (human) (UniProt Q9H5V8); assay: SEC-MALS

binding [1] | binding [2] | Binder
no binding (tested: ∼ 5 mg/ml injected) |  | Cleaved CDCP1 ectodomain complex, Cut 3 (c-CDCP1 (Cut 3)) (complex, UniProt Q9H5V8 30-369; Q9H5V8 370-665) chain 1: FEIALPRESNITVLIKLGTPTLLAKPCYIVISKRHITMLSIKSGERIVFTFSCQSPENHFVIEIQKNIDCMSGPCPFGEVQLQPSTSLLPTLNRTFIWDVKAHKSIGLELQFSIPRLRQIGPGESCPDGVTHSISGRIDATVVRIGTFCSNGTVSRIKMQEGVKMALHLPWFHPRNVSGFSIANRSSIKRLCIIESVFEGEGSATLMSANYPEGFPEDELMTWQFVVPAHLRASVSFLNFNLSNCERKEERVEYYIPGSTTNPEVFKLEDKQPGNMAGNFNLSLQGCDQDAQSPGILRLQFQVLVQHPQNESNKIYVVDLSNERAMSLTIEPRPVKQSRK chain 2: FVPGCFVCLESRTCSSNLTLTSGSKHKISFLCDDLTRLWMNVEKTISCTDHRYCQRKSYSLQVPSDILHLPVELHDFSWKLLVPKDRLSLVLVPAQKLQQHTHEKPCNTSFSYLVASAIPSQDLYFGSFCPGGSIKQIQVKQNISVTLRTFAPSFQQEASRQGLTVSFIPYFKEEGVFTVTPDTKSKVYLRTPNWDRGLPSLTSVSWNISVPRDQVACLTFFKERSGVVCQTGRAFMIIQEQRTRAEEIFSLDEDVLPKPSFHHHSFWVNISNCSPTSGKQLDLLFSVTLTPRTVD
 | no binding (tested: ∼ 5 mg/ml injected) | Uncleaved CDCP1 ectodomain (fl-CDCP1) (domain or fragment, UniProt Q9H5V8 30-667) FEIALPRESNITVLIKLGTPTLLAKPCYIVISKRHITMLSIKSGERIVFTFSCQSPENHFVIEIQKNIDCMSGPCPFGEVQLQPSTSLLPTLNRTFIWDVKAHKSIGLELQFSIPRLRQIGPGESCPDGVTHSISGRIDATVVRIGTFCSNGTVSRIKMQEGVKMALHLPWFHPRNVSGFSIANRSSIKRLCIIESVFEGEGSATLMSANYPEGFPEDELMTWQFVVPAHLRASVSFLNFNLSNCERKEERVEYYIPGSTTNPEVFKLEDKQPGNMAGNFNLSLQGCDQDAQSPGILRLQFQVLVQHPQNESNKIYVVDLSNERAMSLTIEPRPVKQSRKFVPGCFVCLESRTCSSNLTLTSGSKHKISFLCDDLTRLWMNVEKTISCTDHRYCQRKSYSLQVPSDILHLPVELHDFSWKLLVPKDRLSLVLVPAQKLQQHTHEKPCNTSFSYLVASAIPSQDLYFGSFCPGGSIKQIQVKQNISVTLRTFAPSFQQEASRQGLTVSFIPYFKEEGVFTVTPDTKSKVYLRTPNWDRGLPSLTSVSWNISVPRDQVACLTFFKERSGVVCQTGRAFMIIQEQRTRAEEIFSLDEDVLPKPSFHHHSFWVNISNCSPTSGKQLDLLFSVTLTPRTVDLT
